According to patent US5015631A, “Repairing agent for cells and tissues” (MECT Corporation, priority 1987, dated 1991):
Further values from the same series stand in other lists.

Tested on: mice
Test: Simple acute toxicity test by intravenous injection in mice
Format: in vivo, Male ddy mice
Conditions: 3 mice
Description: Simple acute toxicity test:
Simple acute toxicity tests of the materials were conducted by intraveous injections for the mice as follows:
Lithium, potassium, barium and magnesium N-acetylneuraminates (products of MECT Corporation) were used.
Weight of the animal in the initial stage of the test: 17.7 to 21.1 g
Number of mice for each level: 3
(3) Room temperature: 23±1° C., humidity: 55±7%
(4) Route of administration: intravenous injection
The material was dissolved in the physiological saline. The concentration of the dose solution was adjusted so that 0.2 ml of the dose solution was administered per 20 g of the body weight of the mice. The solution was given to a tail of each mouse by the intravenous injection. The dose was 500, 1000 or 2000 mg/kg.
The general symptoms and death were observed from immediately after the administration to seven days after the administration.

CC(=O)N[C@H]1[C@H]([C@H](O)[C@H](O)CO)OC(O)(C(=O)O)C[C@@H]1O (some centres unmarked) [Magnesium N-acetylneuraminate]
Number of death with the elapse of time (1000 mg/kg i.v., 1 hr): 3
Number of death with the elapse of time (1000 mg/kg i.v., 3 hrs): 0
Number of death with the elapse of time (1000 mg/kg i.v., 6 hrs): 0
Number of death with the elapse of time (1000 mg/kg i.v., 24 hrs): 0
Number of death with the elapse of time (1000 mg/kg i.v., 2 days): 0
Number of death with the elapse of time (1000 mg/kg i.v., 3 days): 0
Number of death with the elapse of time (1000 mg/kg i.v., 4 days): 0
Number of death with the elapse of time (1000 mg/kg i.v., 5 days): 0
Number of death with the elapse of time (1000 mg/kg i.v., 6 days): 0
Number of death with the elapse of time (1000 mg/kg i.v., 7 days): 0
Number of death with the elapse of time (2000 mg/kg i.v., 1 hr): 3
Number of death with the elapse of time (2000 mg/kg i.v., 3 hrs): 0
Number of death with the elapse of time (2000 mg/kg i.v., 6 hrs): 0
Number of death with the elapse of time (2000 mg/kg i.v., 24 hrs): 0
Number of death with the elapse of time (2000 mg/kg i.v., 2 days): 0
Number of death with the elapse of time (2000 mg/kg i.v., 3 days): 0
Number of death with the elapse of time (2000 mg/kg i.v., 4 days): 0
Number of death with the elapse of time (2000 mg/kg i.v., 5 days): 0
Number of death with the elapse of time (2000 mg/kg i.v., 6 days): 0
Number of death with the elapse of time (2000 mg/kg i.v., 7 days): 0
